Experimental data published in article PMC5753878.
No constants are given. Whether binding was seen depends on the method and setting. In cells and extracts the contact can be indirect. Binding calls can cover weak binding; strength is not graded here. Tags and fused reporters may be left off the sequences shown.

The chains behind the UniProt entries cited, without tags or fusion partners. Where a name states a change or a piece, a line headed by the entry shows the natural chain unless it says otherwise.
UniProt P17214: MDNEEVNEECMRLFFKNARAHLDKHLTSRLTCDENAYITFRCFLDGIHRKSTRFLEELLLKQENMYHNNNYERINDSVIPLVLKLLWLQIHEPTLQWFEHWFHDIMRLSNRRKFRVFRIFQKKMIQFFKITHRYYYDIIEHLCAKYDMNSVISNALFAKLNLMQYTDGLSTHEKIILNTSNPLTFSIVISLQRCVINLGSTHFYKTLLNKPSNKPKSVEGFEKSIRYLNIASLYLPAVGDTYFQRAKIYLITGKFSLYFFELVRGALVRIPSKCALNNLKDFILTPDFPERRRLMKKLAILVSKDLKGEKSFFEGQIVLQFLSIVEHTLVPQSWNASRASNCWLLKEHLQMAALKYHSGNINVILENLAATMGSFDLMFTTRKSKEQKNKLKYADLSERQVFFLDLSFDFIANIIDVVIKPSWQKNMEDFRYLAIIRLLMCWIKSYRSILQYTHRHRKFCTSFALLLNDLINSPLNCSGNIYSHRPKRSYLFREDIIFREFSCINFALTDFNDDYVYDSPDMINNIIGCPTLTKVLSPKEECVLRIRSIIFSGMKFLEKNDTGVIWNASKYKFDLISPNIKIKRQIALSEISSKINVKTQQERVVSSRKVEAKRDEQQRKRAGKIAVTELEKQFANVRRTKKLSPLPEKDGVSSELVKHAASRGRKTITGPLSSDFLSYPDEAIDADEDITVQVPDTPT

Biological target: T1, Cdc13 tagged with (FLAG)3 (S. cerevisiae) (UniProt P32797)
T1 sequence: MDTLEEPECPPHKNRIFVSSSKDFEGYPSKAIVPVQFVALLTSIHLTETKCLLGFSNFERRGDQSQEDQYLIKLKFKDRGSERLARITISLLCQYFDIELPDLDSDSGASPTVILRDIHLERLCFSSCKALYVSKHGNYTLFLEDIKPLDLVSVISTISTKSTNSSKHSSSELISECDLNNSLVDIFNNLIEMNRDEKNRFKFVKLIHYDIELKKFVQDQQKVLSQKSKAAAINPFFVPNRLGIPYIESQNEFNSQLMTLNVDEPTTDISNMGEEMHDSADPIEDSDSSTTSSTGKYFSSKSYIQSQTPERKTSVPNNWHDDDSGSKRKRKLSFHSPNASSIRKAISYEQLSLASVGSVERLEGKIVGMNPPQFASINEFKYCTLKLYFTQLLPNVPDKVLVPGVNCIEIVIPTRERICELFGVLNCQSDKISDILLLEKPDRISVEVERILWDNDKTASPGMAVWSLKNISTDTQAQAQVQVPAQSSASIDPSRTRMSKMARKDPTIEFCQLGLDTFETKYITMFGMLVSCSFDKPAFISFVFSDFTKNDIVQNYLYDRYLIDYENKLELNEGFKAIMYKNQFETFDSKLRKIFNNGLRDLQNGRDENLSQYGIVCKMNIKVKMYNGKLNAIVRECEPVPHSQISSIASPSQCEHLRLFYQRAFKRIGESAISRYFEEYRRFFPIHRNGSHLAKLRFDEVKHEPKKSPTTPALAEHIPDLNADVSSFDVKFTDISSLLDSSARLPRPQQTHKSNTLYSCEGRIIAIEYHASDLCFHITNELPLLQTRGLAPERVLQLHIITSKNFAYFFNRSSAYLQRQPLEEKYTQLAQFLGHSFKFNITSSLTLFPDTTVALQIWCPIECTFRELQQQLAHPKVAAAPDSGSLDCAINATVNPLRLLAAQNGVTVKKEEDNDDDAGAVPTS
Test: co-IP; anti-FLAG IP of Cdc13 tagged with (FLAG)3 from yeast extracts, Est1 tagged with (myc)12

binding: binds
Substance: Est1-(myc)12 with a mutation of K555 (from UniProt P17214)
